Values from PubChem BioAssay AID1259283 (Sanger Institute, 2017).

Assay: 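Kinases needed for HT115 growth and partners for drug synergy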 (primary screen)
System: HT115 colorectal cancer cells
Reagents: siRNA pool against human genes
Conditions: anchor drug given one day after siRNA: BYL719 at 1 µM, cetuximab at 5 µg/ml, trametinib at 10 nM, or DMSO vehicle alone
Measured: 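Viability normalised to non-targeting pool #2 wells and averaged over replicates, robust z-score against control wells, and a synergy score for each of three drugs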
Reading the numbers: robust z-score, knock-down alone: higher = more viable cells after knock-down; viability, DMSO vs non-targeting control: higher = more viable cells
Units: viability, DMSO vs non-targeting control in fraction of control
Call rule: 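Essential gene: robust z-score less than -3 with no drug added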
Calls: active = essential (z below -3, no drug); inactive = no change without drug
Shown is a random part of 794 deposited reagents. 14 of them (1.8%) were called active. 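Calls reflect only viability loss without drug; drug synergy does not enter the call.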 A number with no mark means an inactive call. No viability above 1 is reported: the scale is capped. Further read-outs or replicates are left out here. Not given: the amount of reagent, the time to read-out.

Which result is listed for CALM2 (calmodulin 2)?
robust z-score, knock-down alone: -0.162; viability, DMSO vs non-targeting control: 0.912

With ARID1A (AT-rich interaction domain 1A), what was measured?
robust z-score, knock-down alone: 0.789; viability, DMSO vs non-targeting control: 1

For NME5 (NME/NM23 family member 5), what was measured?
robust z-score, knock-down alone: 0.708; viability, DMSO vs non-targeting control: 0.993

For TP53BP1 (tumor protein p53 binding protein 1), how do the results read?
robust z-score, knock-down alone: -0.0495; viability, DMSO vs non-targeting control: 0.923

How did the screen score PRKCI (protein kinase C iota)?
robust z-score, knock-down alone: -0.839; viability, DMSO vs non-targeting control: 0.849

For EPHB2 (EPH receptor B2), what does the deposit list?
robust z-score, knock-down alone: -0.762; viability, DMSO vs non-targeting control: 0.857

What did the screen give for PRKAR2B?
robust z-score, knock-down alone: -0.349; viability, DMSO vs non-targeting control: 0.895

Which result is listed for STK11 (serine/threonine kinase 11)?
robust z-score, knock-down alone: -2.22; viability, DMSO vs non-targeting control: 0.722

With ANKK1 (ankyrin repeat and kinase domain containing 1), how do the results read?
robust z-score, knock-down alone: 0.378; viability, DMSO vs non-targeting control: 0.962

What is on record for GK2 (glycerol kinase 2)?
robust z-score, knock-down alone: 0.74; viability, DMSO vs non-targeting control: 0.995

An excerpt from above, limited to “viability, DMSO vs non-targeting control”.
EPHB2 (EPH receptor B2): 0.857
PRKAR2B: 0.895
STK11 (serine/threonine kinase 11): 0.722

More records follow.
How did the screen score CKM (creatine kinase, M-type)?
robust z-score, knock-down alone: 0.789; viability, DMSO vs non-targeting control: 1

What is on record for ETNK1 (ethanolamine kinase 1)?
robust z-score, knock-down alone: 0.789; viability, DMSO vs non-targeting control: 1

With NEK1 (NIMA related kinase 1), what does the deposit list?
robust z-score, knock-down alone: -0.652; viability, DMSO vs non-targeting control: 0.867

With SCYL1 (SCY1 like pseudokinase 1), how do the results read?
robust z-score, knock-down alone: 0.789; viability, DMSO vs non-targeting control: 1

For PRKAR1B (protein kinase cAMP-dependent type I regulatory subunit beta), what was measured?
robust z-score, knock-down alone: -1.58; viability, DMSO vs non-targeting control: 0.781

What did the screen give for STK31 (serine/threonine kinase 31)?
robust z-score, knock-down alone: 0.284; viability, DMSO vs non-targeting control: 0.953

With PRKD2 (protein kinase D2), how do the results read?
robust z-score, knock-down alone: 0.481; viability, DMSO vs non-targeting control: 0.972

For PRKAG1 (protein kinase AMP-activated non-catalytic subunit gamma 1), what does the deposit list?
robust z-score, knock-down alone: 0.789; viability, DMSO vs non-targeting control: 1

What did the screen give for TEX14 (testis expressed 14, intercellular bridge forming factor)?
robust z-score, knock-down alone: 0.789; viability, DMSO vs non-targeting control: 1
